# Assay results from PubChem BioAssay AID1487 (National Center for Advancing Translational Sciences (NCATS), 2009).
# Where “and” joins values, the source holds several entries; their conditions need not be identical. Identical values can stand only once. Some of the results follow. Further columns of the screen follow, without active or inactive calls. The list favours compounds with an active or inconclusive main result. The note in brackets gives the kind of curve behind each potency; many fits are weak.
# Assay: qHTS Assay for Modulators of Lamin A Splicing
# Conditions: HeLa LMNA splicing GFP/RFP minigene ratio, 48 h
# Procedure, shortened: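 S3 HeLa cells stably expressing lamin A-EGFP splicing minigene plus DsRed2, 600 cells/well, 48 h compound exposure at 37C. Laser-scanning cytometry; analysed as GFP (500-530 nm)/RFP (575-640 nm) total intensity ratio; 0.5% DMSO vehicle.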
# [1] = measured here: GFP splicing reporter channel
# [2] = measured here: RFP viability control channel
SMILES,AC50 [1],AC50 [2]
Cc1noc(C)c1COC(=O)c1ccc(N(C)C)cc1,"12.6 µM [falling, partial curve]",
NC(N)=Nc1nc(CSCC/C(N)=N/S(N)(=O)=O)cs1,"355 nM [falling, partial curve, poor fit] and 5.62 nM [falling, full curve, poor fit] and 6.31 µM [falling, partial curve, poor fit]","282 nM [falling, partial curve, poor fit] and 28.2 nM [falling, full curve, poor fit] and 5.62 µM [falling, single point]"
CS(=O)(=O)N(CCc1ccccc1)CC(=O)Nc1ccc(OCc2ccccc2)cc1,"15.8 µM [falling, single point]","15.8 µM [falling, single point]"
Cc1ccc2[nH]c(=O)c(CN(Cc3ccccc3)C(=S)NCCCN(C)C)cc2c1,,"10 µM [falling, partial curve]"
CCn1c(SCC(=O)Nc2ccc(C)cc2)nnc1-c1ccc(O)cc1,,"14.1 µM [rising, partial curve, poor fit]"
CCC(C)(C)n1nnnc1CN1CCC(NC(=O)c2ccc(Br)cc2)CC1,,"20 µM [rising, single point]"
CCc1ccccc1N1CCN(S(=O)(=O)c2cc(OC)ccc2OC)CC1,,"15.8 µM [rising, partial curve, poor fit]"
CCCN(CCC)C(=O)COc1cc(=O)n(CC)c2ccccc12,,"3.98 µM [rising, single point]"
CN(NC(=O)c1ccccc1F)c1nc(C(F)(F)F)nc2ccccc12,,"12.6 µM [rising, partial curve, poor fit]"
OCCN(Cc1nc(-c2ccc3c(c2)OCO3)no1)Cc1cccs1,,"22.4 µM [falling, partial curve, poor fit]"
CC(=O)N1CCc2c(sc3c2c(=O)n(-c2ccccc2Cl)c(=O)n3Cc2cccc(C)c2)C1,"35.5 µM [rising, single point]","35.5 µM [rising, single point]"
CC(NC(=O)CSC1=NCCS1)c1ccccc1 (stereo unspecified),,"35.5 µM [rising, single point]"
O=C(Nc1cccc(Cl)c1)Nc1cccc(Cl)c1,,"15.8 µM [rising, single point]"
C=C(C)COc1ccc(-c2[nH]ncc2Oc2ccccc2OCC)c(O)c1,,"35.5 µM [rising, single point]"
CCOC(=O)N1CCN(Cc2nc3cc(NC(=O)c4ccccc4Cl)ccc3n2C(C)C)CC1,,"0.708 µM [rising, partial curve]"
Cc1cc(-c2ccccc2)nnc1NCCN1CCOCC1,"14.1 µM [falling, single point]","22.4 µM [falling, partial curve, poor fit]"
O=C(CN1CCC(n2nnc3cc(F)ccc32)CC1)NCCc1nc2ccccc2[nH]1,"35.5 µM [rising, single point]","20 µM [rising, single point]"
CN(Cc1ccco1)c1ncnc2ccc(-c3ccccc3C#N)cc12,,"35.5 µM [falling, single point]"
CC1CCCN(C(=S)SCC(=O)c2cc(Br)cc(Br)c2O)C1 (stereo unspecified),"0.02 µM [rising, full curve, poor fit]","35.5 µM [rising, single point]"
Cc1cc(Nc2nc3ccccc3nc2Cl)n(-c2ccc([N+](=O)[O-])cc2)n1,"11.2 µM [falling, single point]","35.5 µM [rising, single point]"
O=C(CSc1ccc(Cl)cc1Cl)N1CCC(c2nc3ccccc3s2)CC1,"11.2 µM [falling, partial curve, poor fit]","10 µM [falling, partial curve, poor fit]"
Cc1c(C(=O)N2CCOCC2)[nH]c2c1C(=O)CC(c1ccccc1Cl)C2 (stereo unspecified),,"3.16 µM [rising, full curve, poor fit]"
O=C(Cn1cc(C(=O)c2ccco2)c2ccccc21)Nc1ccccc1,,"17.8 µM [rising, single point]"
Cc1nn(Cc2cccc(Oc3ccccc3)c2)c(C)c1NC(=O)NC12CC3CC(CC(C3)C1)C2,,"0.00447 µM [falling, full curve, poor fit]"
COc1cc(CNc2ccc(CNc3ncn[nH]3)cc2)ccc1OCC(=O)NC(C)(C)C,"6.31 µM [rising, partial curve]","12.6 µM [rising, partial curve]"
CCC(C)(C)n1nnnc1CN(Cc1cccs1)Cc1cc2cc(OC)ccc2[nH]c1=O,"28.2 µM [rising, single point]","12.6 µM [rising, partial curve, poor fit]"
